Assay results from patent US6046289A (priority 1990, dated 2000).

Tests used:
[1] = solution-phase peptide synthesis; settings: hydrochloride
[2] = general procedure: Boc solid-phase peptide synthesis; settings: whole synthesis, hydrochloride

Substance	step yield ([1]; late stage modification step) [%]	step yield ([1]; coupling step) [%]	isolated yield [2] [%]
BocArg(Mts)GlyAsp(OBzl)Gly	79	–	–
CH2 =CCH3 --CO--NH--C2 H4 --CO-RGDSGNH2	65	–	–
BocGlyAsp(OBzl)Ser(Bzl)GlyNH2	–	84	–
BocArg(Mts)GlyAsp(OBzl)Ser(Bzl)GlyNH2	–	45	–
CH2=CC2H5-CO-NH-(CH2)4-CO-GRGDS	–	–	35
CH2=CH-CO-GGGRGDS	–	–	30
BocArg(Mts)GlyAsp(OBzl)Ser(Bzl)OBzl	–	50	–
PEPTIDE1{[Methacryloyl].[bAla].R.G.D.S}$$$$V2.0	80	–	–
CH2=CCH3-CO-GRGDSP	–	–	26

For part of these data: Some peptides are written in HELM: one residue between dots, names in brackets for other building blocks, links after the first $.
